From PubChem BioAssay AID504444 (National Center for Advancing Translational Sciences (NCATS), 2011)
Out of some 360,000 compounds screened, about 7,500 (2.1%) were called active. The shares of active, inactive and inconclusive entries below differ from those in the screen. Calls follow the shape of the dose curve; as a rule, active = well fitted inhibition curve with a large enough effect; inconclusive = small, poorly fitted or top-dose-only effect, or effect the other way; inactive = flat fitted curve, though single readings scatter. Potencies beside an inconclusive call are fits to weak or partial responses and may not hold up.
% is scaled to controls: 0 for no effect and ±100 for the full control effect; potency is read from the fitted curve at half-maximal effect.

Experiment: Nrf2 qHTS screen for inhibitors; also: nearly all actives have a fitted effect of over 60% in size
Conditions: A549 ARE-Fluc reporter, luciferase luminescence, 18-24 h; activity change, negative = inhibition: at 46 µM (top of the series)
Summary of the method: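 Nrf2 activity is the BugLite luminescence, read 15 min after reagent at room temperature, following CellTiter-Fluor cytotoxicity readout (30 min, 37C). Compound titrations were applied for 18-24 h to 5000 A549 ARE_Fluc cells/well in 5% FBS OPTI-MEM.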
For `COc1ccc(-c2cc(C(=O)NCC(c3ccccc3)N(C)C)c3ccccc3n2)cc1OC` (configuration not stated), the Potency was inconclusive: 2.59 µM [activator, full curve]. With `COc1ccc(-n2ncc3c(N4CCc5ccccc54)ncnc32)cc1` the Potency was inconclusive: 0.231 µM [activator, full curve, poor fit]. With `COC(=O)Cn1cc(/C=C(/C#N)C(=O)N2CCOCC2)c2ccccc21` the Potency was inconclusive: 20.6 µM [activator, single point]. With `Cc1ccccc1CSc1n[nH]c(NS(=O)(=O)c2ccccc2)n1` the Potency was inconclusive: 25.9 µM [activator, single point]. For `O=C(CSc1nnc(-c2ccc(O)cc2)o1)Nc1ccccc1Br`, the Potency was inconclusive: 16.4 µM [activator, single point]. For `COc1ccccc1C(=O)Nc1ccc2nc(SCC(=O)N(C)C)sc2c1`, the Potency was inconclusive: 1.64 µM [falling, full curve, poor fit]. In the case of `COc1ccc(CNC(=O)c2cnn(-c3ccc(F)cc3)c2-n2cccc2)cc1`, the Potency is reported as inconclusive: 23.1 µM [activator, partial curve, poor fit]. With `CCOC(=O)c1c(C)nc(C)c(C(=O)OCC)c1-c1cccnc1` the Potency was inconclusive: 29.1 µM [falling, single point]. With `Brc1ccccc1-c1nnc(CSc2nncn2-c2ccccc2)o1` the “activity change, negative = inhibition” value was inactive: -3.65%. In the case of `CN1N=C(C(=O)Nc2ccc3c(c2)CCC3)CCC1=O`, the Potency is reported as inconclusive: 5.8 µM [activator, partial curve]. In the case of `CCN(c1ccccc1)S(=O)(=O)c1ccc(C(=O)Nc2cccc(C)n2)cc1`, the Potency is reported as active: 18.4 µM. In the case of `Cc1cccc2nc(-c3cccnc3)c(Nc3ccccc3)n12`, the Potency is reported as inconclusive: 32.6 µM [falling, single point]. In the case of `NC(=O)CC(NC(=O)c1ccc(Br)cc1)c1ccc(N2CCC(Br)CC2)c([N+](=O)[O-])c1` (configuration not stated), the Potency is reported as inconclusive: 23.1 µM [falling, single point]. With `O=C(C1CC(=O)N(C2CCCCC2)C1)N1CCN(c2cccc(C(F)(F)F)c2)CC1` (configuration not stated) the Potency was inconclusive: 18.4 µM [falling, partial curve, poor fit]. With `O=S(=O)(Nc1ccn(-c2ccccc2)n1)c1ccc(Br)cc1` the Potency was inconclusive: 29.1 µM [activator, single point]. In the case of `Cc1nnc(N2CCOCC2)c2nn(-c3cccc(Cl)c3)c(C)c12`, the Potency is reported as inconclusive: 20.6 µM [falling, single point]. For `COc1ccc(OC)c(C(=O)c2ccc(C(=O)Nc3ccc4ccccc4c3)cc2)c1`, the Potency was inconclusive: 2.59 µM [falling, full curve, poor fit]. In the case of `CCC1CCCCN1S(=O)(=O)c1ccc(C(=O)Nc2nnc(C3CC3)o2)cc1` (configuration not stated), the Potency is reported as inconclusive: 5.17 µM [falling, partial curve, poor fit]. For `Fc1ccc(-[n+]2nc(Nc3ccccc3)sc2-c2c3ccccc3cc3ccccc23)cc1`, the Potency was inconclusive: 29.1 µM [falling, single point]. In the case of `Cc1cccc(CNC(=O)c2ccc(NC(=O)N3CCSc4ccccc43)cc2)c1`, the Potency is reported as inconclusive: 16.4 µM [falling, single point]. For `CCC(=O)Nc1c(-c2ccc(OC)cc2)c(=O)c2ccccc2n1C`, the Potency was inconclusive: 29.1 µM [activator, single point]. In the case of `CCOC(=O)c1csc(-c2ccc3c(c2)CCO3)n1`, the Potency is reported as inconclusive: 29.1 µM [activator, single point]. With `Cc1ccnc(NS(=O)(=O)Cc2ccccc2)c1` the “activity change, negative = inhibition” value was inactive: 15.3%. In the case of `O=C1c2cc3ccccc3c(-c3ccccc3)c2C(=O)N1c1ccccn1`, the “activity change, negative = inhibition” value is reported as inactive: 1.27%. In the case of `O=C(c1cccnc1)N1N=C(c2cccs2)CC1c1ccc(F)cc1` (configuration not stated), the “activity change, negative = inhibition” value is reported as inactive: -2.02%. In the case of `CCN(CC)S(=O)(=O)c1cccc(C(=O)Nc2nc3cc4c(cc3s2)OCCO4)c1`, the Potency is reported as active: 14.6 µM. For `O=S(=O)(NCCO)c1ccc2c(c1)Cc1cc(S(=O)(=O)NCCO)ccc1-2`, the “activity change, negative = inhibition” value was inactive: 12.1%. With `COC(=O)c1ccc(N2OC3(C)C=CC2CC3)cc1` (configuration not stated) the Potency was inconclusive: 29.1 µM [activator, single point]. For `N#Cc1cccc(OC(=O)c2ccc3c(=O)n4c(nc3c2)CCC4)c1`, the Potency was inconclusive: 6.51 µM [activator, single point]. With `CCOc1ccc(CN(C)C(=O)CCc2ccc(S(=O)(=O)N3CCCCCC3)cc2)cc1` the Potency was inconclusive: 0.58 µM [falling, full curve, poor fit]. In the case of `O=C(N/N=C/c1cccnc1)c1cc2c(ccc3ccccc32)o1`, the Potency is reported as inconclusive: 6.51 µM [falling, partial curve]. With `CC(=O)Nc1ccc(OCC(=O)c2ccc(C)cc2C)cc1` the Potency was inconclusive: 25.9 µM [falling, single point]. With `O=C(Cc1ccc(F)cc1)Nc1nnc(SCC(=O)NC2CCCC2)s1` the Potency was inconclusive: 0.82 µM [falling, full curve, poor fit]. With `Cc1[nH]c(=S)[nH]c(=O)c1CCOc1ccccc1` the Potency was inconclusive: 14.6 µM [falling, partial curve, poor fit]. In the case of `Cc1cccc(C(=O)Nc2sc(-c3ccccc3)cc2C(=O)O)c1`, the Potency is reported as inconclusive: 11.6 µM [activator, partial curve]. For `CCOC(=O)C1(CCOc2ccccc2)CCN(Cc2ccncc2)CC1`, the Potency was inconclusive: 20.6 µM [falling, single point]. In the case of `CC1CCCN(c2nc3c(c(=O)n(C)c(=O)n3C)n2CCSc2nc3ccccc3s2)C1` (configuration not stated), the Potency is reported as inconclusive: 6.51 µM [falling, partial curve, poor fit]. With `CCc1ccc(-n2nc(C)c3c(C)cc(=O)n(CC(=O)Nc4ccccc4C(=O)OC)c32)cc1` the “activity change, negative = inhibition” value was inactive: 1.02%. For `O=C(CN(Cc1cccs1)C(=O)CSc1nnc(COc2ccccc2)o1)NC1CCCCC1`, the “activity change, negative = inhibition” value was inactive: -14.7%. For `CCCCOc1ccc(C(=O)N/C(=C\c2ccc(Br)cc2)C(=O)NC2CCCCC2)cc1`, the “activity change, negative = inhibition” value was inactive: -9.48%. For `O=C(N/N=C/c1ccc(OCc2ccccc2)cc1)c1ccco1`, the Potency was inconclusive: 11.6 µM [activator, partial curve, poor fit]. With `Cc1nc2c3ccccc3nc(NNC(=O)CCC(=O)N3CCN(c4cccc(C(F)(F)F)c4)CC3)n2n1` the Potency was inconclusive: 25.9 µM [falling, partial curve, poor fit].
